The list shows only some results of the screen, not a fair sample: it covers a few groups of compounds. Not every dose and run of a compound is shown. T/C: endpoint of the treated group in % of that of the vehicle group. Some entries give survivors of the animals treated and no T/C: the source holds a T/C of zero for them, seemingly a mark for toxic or unscored doses. Some doses without a T/C left all or most animals alive at the check, yet need not have been tolerated: the source hardly ever lists a survival T/C far under the control, and the zero likely stands for such cases as well. Counts of survivors are from the toxicity check (mostly the fifth day) where no day follows; animals may have died later. Schedule codes are those of the source, taken here to give the interval after Q, in days (D) or hours (H), and the number of doses after X. Some doses were run more than once; their values stand side by side, smallest first. Where survival is the endpoint, the PubChem record calls one and a half times the control and up active, and a quarter to a half above the control has no call in these data; cut-offs in other NCI protocols can differ. Some T/C values are marked as having no survivor count here; that says nothing about deaths at the dose. Some T/C values carry the count of animals alive at the toxicity check (mostly the fifth day); without a count or a note in brackets, all were alive then.
System: CD2F1 mice, L1210 leukemia ip, survival T/C
Assay: NCI In Vivo Anticancer Drug Screen. Data for tumor model L1210 Leukemia (intraperitoneal) in CD2F1 (CDF1) mice
Conditions: T/C endpoint: mean survival time, higher T/C = longer survival
Summary of the method: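 Vehicle-treated tumor-bearing mice served as controls (C) for compound-treated mice (T). Reported figure is T divided by C.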

[1] = dose: 25.0 mg/kg/injection, schedule: Q01DX001 (ip), vehicle: DMSO
[2] = dose: 100.0 mg/kg/injection, schedule: Q01DX001 (ip), vehicle: DMSO
[3] = dose: 200.0 mg/kg/injection, schedule: Q01DX001 (ip), vehicle: DMSO
[4] = dose: 266.0 mg/kg/injection, schedule: Q01DX001 (ip), vehicle: DMSO
[5] = dose: 400.0 mg/kg/injection, schedule: Q01DX001 (ip), vehicle: DMSO
[6] = dose: 600.0 mg/kg/injection, schedule: Q01DX001 (ip), vehicle: DMSO
[7] = dose: 900.0 mg/kg/injection, schedule: Q01DX001 (ip), vehicle: DMSO
[8] = dose: 100.0 mg/kg/injection, schedule: Q04DX003 (ip), vehicle: saline with Tween-80
[9] = dose: 200.0 mg/kg/injection, schedule: Q04DX003 (ip), vehicle: saline with Tween-80
[10] = dose: 50.0 mg/kg/injection, schedule: Q04DX002 (ip), vehicle: saline with Tween-80
[11] = dose: 100.0 mg/kg/injection, schedule: Q04DX002 (ip), vehicle: saline with Tween-80
[12] = dose: 400.0 mg/kg/injection, schedule: Q04DX003 (ip), vehicle: saline with Tween-80

With `CC(=O)CCOP(=O)(N(C)C)N(CCCl)CCCl` (stereo not drawn) the T/C [1] was 103 % of control, the T/C (dose: 50.0 mg/kg/injection, schedule: Q01DX001 (ip), vehicle: DMSO, evaluated on day 20) was 132 % of control and the T/C (dose: 50.0 mg/kg/injection, schedule: Q01DX001 (ip), vehicle: DMSO, evaluated on day 60) was 108 % of control. The T/C [2] was 102 % of control, the survivor count [2] was 4 of 6 and the T/C [3] was 115 % of control. For the same compound, the survivor count [3] was 3 of 6, the T/C [4] was 125 % of control and the T/C [5] was 137 % of control [5 of 6 alive]. The survivor count [5] was 0 of 6 and 6 of 6, the survivor count [6] was 3 of 6 and the survivor count [7] was 0 of 6.
With `CS(=O)(=O)OCC1CCOP(=O)(N(CCCl)CCCl)N1` (stereo not drawn) the T/C (dose: 15.63 mg/kg/injection, schedule: Q01DX001 (ip), vehicle: DMSO) was 103 and 106 % of control, the T/C (dose: 31.25 mg/kg/injection, schedule: Q01DX001 (ip), vehicle: DMSO) was 101 and 103 % of control and the T/C (dose: 62.5 mg/kg/injection, schedule: Q01DX001 (ip), vehicle: DMSO) was 97 and 100 % of control. The T/C (dose: 125.0 mg/kg/injection, schedule: Q01DX001 (ip), vehicle: DMSO) was 97 and 103 % of control, the T/C (dose: 250.0 mg/kg/injection, schedule: Q01DX001 (ip), vehicle: DMSO) was 101 and 103 % of control and the T/C (dose: 500.0 mg/kg/injection, schedule: Q01DX001 (ip), vehicle: DMSO) was 100 and 101 % of control. For the same compound, the T/C (dose: 1000.0 mg/kg/injection, schedule: Q01DX001 (ip), vehicle: DMSO) was 95 and 100 % of control.
For `O=C1c2cc([N+](=O)[O-])cc([N+](=O)[O-])c2-c2c1cc([N+](=O)[O-])cc2[N+](=O)[O-]`, the T/C (dose: 50.0 mg/kg/injection, schedule: Q01DX009 (ip), vehicle: saline with Tween-80) was 90 % of control [survivor count not shown], the T/C [8] was 93 % of control [survivor count not shown] and the T/C [9] was 98 % of control [survivor count not shown].
In the case of `C1CN1`, the T/C (dose: 6.25 mg/kg/injection, schedule: Q01DX009 (ip), vehicle: saline with Tween-80) is reported as 102 % of control, the T/C (dose: 12.5 mg/kg/injection, schedule: Q01DX009 (ip), vehicle: saline with Tween-80) is reported as 106 % of control [5 of 6 alive] and the T/C (dose: 25.0 mg/kg/injection, schedule: Q01DX009 (ip), vehicle: saline with Tween-80) is reported as 120 % of control. For the same compound, the T/C (dose: 25.0 mg/kg/injection, schedule: Q04DX002 (ip), vehicle: saline with Tween-80) was 109 % of control, the survivor count [10] was 1 of 3 and the survivor count [11] was 1 of 3.
In the case of `Cc1cccc(Nc2c([N+](=O)[O-])cc([N+](=O)[O-])cc2[N+](=O)[O-])c1`, the T/C [8] is reported as 97 % of control, the T/C [9] is reported as 100 % of control and the T/C [12] is reported as 91 % of control.
`CCCCCc1ccccn1.O=[N+]([O-])c1cc([N+](=O)[O-])c(O)c([N+](=O)[O-])c1` was tested, and the T/C [10] was 100 % of control [survivor count not shown], the T/C [11] was 96 % of control [survivor count not shown] and the T/C (dose: 200.0 mg/kg/injection, schedule: Q04DX002 (ip), vehicle: saline with Tween-80) was 100 % of control [survivor count not shown].
For `Cc1ccc([N+](=O)[O-])cc1NC(=O)NNc1ccc([N+](=O)[O-])cc1[N+](=O)[O-]`, the survivor count (dose: 100.0 mg/kg/injection, schedule: Q01DX009 (ip), vehicle: saline with Tween-80) was 6 of 6, the T/C (dose: 200.0 mg/kg/injection, schedule: Q01DX009 (ip), vehicle: saline with Tween-80) was 91 % of control and the T/C (dose: 400.0 mg/kg/injection, schedule: Q01DX009 (ip), vehicle: saline with Tween-80) was 94 % of control [5 of 6 alive].
With `CCC(CC)=NOP(N)(=O)N(CCCl)CCCl` (stereo not drawn) the T/C (dose: 31.25 mg/kg/injection, schedule: Q01DX001 (ip), vehicle: distilled water + Tween-80) was 98 % of control, the T/C (dose: 62.5 mg/kg/injection, schedule: Q01DX001 (ip), vehicle: distilled water + Tween-80) was 101 % of control and the survivor count (dose: 125.0 mg/kg/injection, schedule: Q01DX001 (ip), vehicle: distilled water + Tween-80) was 0 of 6. For the same compound, the survivor count (dose: 250.0 mg/kg/injection, schedule: Q01DX001 (ip), vehicle: distilled water + Tween-80) was 0 of 6 and the survivor count (dose: 500.0 mg/kg/injection, schedule: Q01DX001 (ip), vehicle: distilled water + Tween-80) was 0 of 6.
In the case of `N#C/C(=C\c1ccc(N(CCBr)CCBr)cc1)C(N)=O`, the T/C (dose: 0.5 mg/kg/injection, schedule: Q01DX009 (ip), vehicle: saline with Tween-80) is reported as 106 % of control, the T/C (dose: 1.0 mg/kg/injection, schedule: Q01DX009 (ip), vehicle: saline with Tween-80) is reported as 117 % of control and the T/C (dose: 2.0 mg/kg/injection, schedule: Q01DX009 (ip), vehicle: saline with Tween-80) is reported as 125 % of control. The T/C (dose: 4.0 mg/kg/injection, schedule: Q01DX009 (ip), vehicle: saline with Tween-80) was 122 % of control and the T/C (dose: 8.0 mg/kg/injection, schedule: Q01DX009 (ip), vehicle: saline with Tween-80) was 97 % of control.
`CC(C)(CO)COP(N)(=O)N(CCCl)CCCl` (stereo not drawn) was tested, and the T/C [1] was 98 % of control, the T/C (dose: 50.0 mg/kg/injection, schedule: Q01DX001 (ip), vehicle: DMSO) was 96 % of control and the T/C [2] was 96 % of control. For the same compound, the T/C [3] was 104 % of control, the T/C [4] was 107 % of control and the T/C (dose: 400.0 mg/kg/injection, schedule: Q01DX001 (ip), vehicle: DMSO, evaluated on day 25) was 114 % of control. For the same compound, the T/C (dose: 400.0 mg/kg/injection, schedule: Q01DX001 (ip), vehicle: DMSO, evaluated on day 60) was 120 % of control, the T/C [6] was 104 % of control and the T/C [7] was 114 % of control [4 of 6 alive].
`Cc1[nH]c(=O)[nH]c(=O)c1N(CCCl)CCCl` was tested, and the T/C (dose: 1.0 mg/kg/injection, schedule: Q01DX007 (ip), vehicle: saline) was 146 % of control, the T/C (dose: 1.0 mg/kg/injection, schedule: Q01DX009 (ip), vehicle: saline) was 150 % of control and the T/C (dose: 1.0 mg/kg/injection, schedule: Q03DX003 (ip), vehicle: saline) was 127 % of control. The T/C (dose: 1.0 mg/kg/injection, schedule: Q04DX003 (ip), vehicle: saline) was 128 % of control, the T/C (dose: 2.0 mg/kg/injection, schedule: Q01DX007 (ip), vehicle: saline) was 160 % of control [5 of 6 alive] and the T/C (dose: 2.0 mg/kg/injection, schedule: Q01DX009 (ip), vehicle: saline) was 148 % of control. For the same compound, the T/C (dose: 2.0 mg/kg/injection, schedule: Q03DX003 (ip), vehicle: saline) was 182 % of control, the T/C (dose: 2.0 mg/kg/injection, schedule: Q04DX003 (ip), vehicle: saline) was 151 % of control and the T/C (dose: 4.0 mg/kg/injection, schedule: Q01DX007 (ip), vehicle: saline) was 108 % of control [5 of 6 alive]. For the same compound, the T/C (dose: 4.0 mg/kg/injection, schedule: Q01DX009 (ip), vehicle: saline) was 86 % of control, the T/C (dose: 4.0 mg/kg/injection, schedule: Q03DX003 (ip), vehicle: saline) was 145 % of control [5 of 6 alive] and the T/C (dose: 4.0 mg/kg/injection, schedule: Q04DX003 (ip), vehicle: saline) was 126 % of control.
In the case of `COC1OC(CNCCCl)C2OC(C)(C)OC12` (stereo not drawn), the T/C (dose: 25.0 mg/kg/injection, schedule: Q01DX015 (ip), vehicle: saline) is reported as 102 % of control and the T/C (dose: 50.0 mg/kg/injection, schedule: Q01DX015 (ip), vehicle: saline) is reported as 96 % of control.
For `C1CN1.NC(CO)C(=O)O` (stereo not drawn), the T/C (dose: 20.0 mg/kg/injection, schedule: Q01DX001 (ip), vehicle: saline) was 109 % of control and the T/C (dose: 40.0 mg/kg/injection, schedule: Q01DX001 (ip), vehicle: saline) was 97 % of control.
In the case of `Cc1c([N+](=O)[O-])c(C)c(S(=O)(=O)c2c(C)c([N+](=O)[O-])c(C)c([N+](=O)[O-])c2C)c(C)c1[N+](=O)[O-]`, the T/C [8] is reported as 93 % of control, the T/C [9] is reported as 102 % of control and the T/C [12] is reported as 95 % of control.
In the case of `Cc1ccc(Nc2c([N+](=O)[O-])cc([N+](=O)[O-])cc2[N+](=O)[O-])c(C)c1`, the T/C [8] is reported as 103 % of control [survivor count not shown], the T/C [9] is reported as 97 % of control [survivor count not shown] and the T/C [12] is reported as 103 % of control [survivor count not shown].

— PubChem BioAssay AID256 (DTP/NCI, 2004)
